Some of the results follow.
How the values were obtained:
Assay in all cases: log2 fold change, soluble protein after heating vs DMSO (PISA); higher = thermal stabilisation; K562 cells, 10 uM, 30 min; active = over 0.2 and 3.5 SD of the protein, either way, in both replicates (recomputed)
[1] = compound: CN1CCN(CCOc2cc(OC3CCOCC3)c3c(Nc4c(Cl)ccc5c4OCO5)ncnc3c2)CC1 [saracatinib]
Summary of the method: (§1)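 Soluble protein was defined as the supernatant after 21,000xg for 90 min. It came from K562 cells at 2×10^6 cells/mL given 10 μM compound for 30 min, heated in aliquots for 3 min across 48°C-58°C, pooled, and extracted in PBS with 0.5% NP-40 at 4°C, and was quantified by TMTpro 16plex LC-MS/MS with equalised channel sums. Thermal stability against control samples, from duplicates, is reported as log2 fold change.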

Chains of the proteins cited; added tags and fusions are not shown. Lines headed by an entry give the natural chain unless they say otherwise; changes in a name come on top.
UniProt P04844: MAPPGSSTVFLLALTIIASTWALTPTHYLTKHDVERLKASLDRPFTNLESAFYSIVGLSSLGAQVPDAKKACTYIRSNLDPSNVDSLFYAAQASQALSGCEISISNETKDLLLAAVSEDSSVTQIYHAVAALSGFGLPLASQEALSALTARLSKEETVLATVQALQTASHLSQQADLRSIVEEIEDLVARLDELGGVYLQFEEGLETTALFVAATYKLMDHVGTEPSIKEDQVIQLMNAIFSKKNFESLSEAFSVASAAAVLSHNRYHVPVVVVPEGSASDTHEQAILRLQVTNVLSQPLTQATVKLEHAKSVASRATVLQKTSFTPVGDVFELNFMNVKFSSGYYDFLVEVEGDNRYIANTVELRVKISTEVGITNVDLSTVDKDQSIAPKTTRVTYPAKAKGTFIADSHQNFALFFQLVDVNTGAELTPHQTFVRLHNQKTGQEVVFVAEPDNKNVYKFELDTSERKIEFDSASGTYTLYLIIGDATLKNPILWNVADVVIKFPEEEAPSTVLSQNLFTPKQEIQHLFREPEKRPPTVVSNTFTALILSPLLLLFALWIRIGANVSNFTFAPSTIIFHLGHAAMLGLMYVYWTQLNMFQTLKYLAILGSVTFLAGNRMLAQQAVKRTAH
UniProt P23443: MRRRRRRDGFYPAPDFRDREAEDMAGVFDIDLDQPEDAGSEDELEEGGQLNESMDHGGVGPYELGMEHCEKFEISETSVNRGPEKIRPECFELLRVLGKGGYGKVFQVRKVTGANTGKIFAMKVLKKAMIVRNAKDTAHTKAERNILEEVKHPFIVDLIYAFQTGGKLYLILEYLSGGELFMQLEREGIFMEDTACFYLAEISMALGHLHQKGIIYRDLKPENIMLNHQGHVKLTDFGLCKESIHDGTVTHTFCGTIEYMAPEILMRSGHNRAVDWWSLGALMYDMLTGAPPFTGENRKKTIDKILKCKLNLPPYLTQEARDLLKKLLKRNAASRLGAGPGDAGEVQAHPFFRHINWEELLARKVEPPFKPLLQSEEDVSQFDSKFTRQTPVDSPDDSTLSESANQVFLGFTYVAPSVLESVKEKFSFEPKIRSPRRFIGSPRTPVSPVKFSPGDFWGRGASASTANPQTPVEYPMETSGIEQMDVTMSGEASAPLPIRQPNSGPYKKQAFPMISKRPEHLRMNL
UniProt O60942: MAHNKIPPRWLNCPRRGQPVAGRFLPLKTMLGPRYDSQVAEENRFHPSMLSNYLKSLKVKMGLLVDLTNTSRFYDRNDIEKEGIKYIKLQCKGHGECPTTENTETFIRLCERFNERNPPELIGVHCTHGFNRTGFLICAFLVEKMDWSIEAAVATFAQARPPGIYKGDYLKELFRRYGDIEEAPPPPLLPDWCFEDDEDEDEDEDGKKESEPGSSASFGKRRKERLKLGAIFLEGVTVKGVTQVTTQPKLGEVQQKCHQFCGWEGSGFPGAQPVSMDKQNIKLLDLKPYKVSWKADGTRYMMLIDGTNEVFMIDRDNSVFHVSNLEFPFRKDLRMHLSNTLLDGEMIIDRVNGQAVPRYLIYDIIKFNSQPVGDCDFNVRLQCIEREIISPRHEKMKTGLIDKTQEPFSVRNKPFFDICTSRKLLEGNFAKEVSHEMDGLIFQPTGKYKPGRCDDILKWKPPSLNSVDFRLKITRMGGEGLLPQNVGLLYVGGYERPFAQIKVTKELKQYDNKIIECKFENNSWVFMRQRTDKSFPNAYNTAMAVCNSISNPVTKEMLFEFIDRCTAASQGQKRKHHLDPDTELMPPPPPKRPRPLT
UniProt Q9H6T3, whole entry, looked up: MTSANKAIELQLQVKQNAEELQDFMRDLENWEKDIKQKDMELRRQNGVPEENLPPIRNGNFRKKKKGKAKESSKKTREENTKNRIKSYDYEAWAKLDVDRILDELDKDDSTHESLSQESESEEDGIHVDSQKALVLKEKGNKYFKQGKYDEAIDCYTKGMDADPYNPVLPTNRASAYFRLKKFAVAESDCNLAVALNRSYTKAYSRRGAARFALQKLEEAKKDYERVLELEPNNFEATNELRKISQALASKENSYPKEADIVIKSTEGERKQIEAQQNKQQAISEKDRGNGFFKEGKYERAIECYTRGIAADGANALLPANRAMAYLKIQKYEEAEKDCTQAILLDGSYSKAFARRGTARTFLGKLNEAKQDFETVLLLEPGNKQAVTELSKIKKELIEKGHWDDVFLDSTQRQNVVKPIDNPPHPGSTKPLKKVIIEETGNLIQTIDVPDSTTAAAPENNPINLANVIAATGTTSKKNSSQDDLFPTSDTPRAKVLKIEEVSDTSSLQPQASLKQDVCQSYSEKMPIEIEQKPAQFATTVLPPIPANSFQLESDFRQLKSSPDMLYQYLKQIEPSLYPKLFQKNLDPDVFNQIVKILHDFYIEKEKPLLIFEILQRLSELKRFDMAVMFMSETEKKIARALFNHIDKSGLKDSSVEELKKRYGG
UniProt P15927: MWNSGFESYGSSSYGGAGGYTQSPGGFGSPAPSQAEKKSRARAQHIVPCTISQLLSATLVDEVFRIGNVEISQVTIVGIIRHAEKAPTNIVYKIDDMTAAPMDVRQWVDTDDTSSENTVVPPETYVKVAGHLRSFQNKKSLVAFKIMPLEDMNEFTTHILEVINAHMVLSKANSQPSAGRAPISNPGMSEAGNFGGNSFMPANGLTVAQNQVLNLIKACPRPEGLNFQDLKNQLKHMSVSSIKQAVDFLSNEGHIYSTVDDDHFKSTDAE
UniProt Q7LG56, whole entry, looked up: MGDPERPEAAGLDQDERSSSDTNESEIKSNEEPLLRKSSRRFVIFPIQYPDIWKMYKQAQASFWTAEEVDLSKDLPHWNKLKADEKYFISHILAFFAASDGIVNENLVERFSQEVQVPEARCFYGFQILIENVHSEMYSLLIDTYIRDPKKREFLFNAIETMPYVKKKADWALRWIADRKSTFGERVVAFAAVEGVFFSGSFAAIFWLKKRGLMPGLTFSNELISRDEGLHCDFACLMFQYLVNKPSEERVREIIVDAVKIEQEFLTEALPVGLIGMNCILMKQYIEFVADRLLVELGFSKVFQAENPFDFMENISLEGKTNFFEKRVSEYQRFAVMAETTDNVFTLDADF
UniProt Q8IZ73: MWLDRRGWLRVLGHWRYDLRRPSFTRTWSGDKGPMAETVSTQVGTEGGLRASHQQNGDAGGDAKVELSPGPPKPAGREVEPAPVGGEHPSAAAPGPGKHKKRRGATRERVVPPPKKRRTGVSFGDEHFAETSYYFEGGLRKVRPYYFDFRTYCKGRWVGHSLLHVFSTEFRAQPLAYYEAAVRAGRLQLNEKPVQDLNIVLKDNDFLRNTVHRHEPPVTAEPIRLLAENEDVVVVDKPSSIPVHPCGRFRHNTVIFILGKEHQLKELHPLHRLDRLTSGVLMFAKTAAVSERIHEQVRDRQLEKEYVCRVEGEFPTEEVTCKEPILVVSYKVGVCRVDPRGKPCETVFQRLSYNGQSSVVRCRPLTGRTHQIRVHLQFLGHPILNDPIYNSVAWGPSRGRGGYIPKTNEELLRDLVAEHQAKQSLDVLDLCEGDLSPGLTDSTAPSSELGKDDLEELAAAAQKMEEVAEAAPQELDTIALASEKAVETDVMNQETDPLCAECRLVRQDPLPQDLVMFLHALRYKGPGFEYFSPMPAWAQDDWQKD
UniProt Q9H633: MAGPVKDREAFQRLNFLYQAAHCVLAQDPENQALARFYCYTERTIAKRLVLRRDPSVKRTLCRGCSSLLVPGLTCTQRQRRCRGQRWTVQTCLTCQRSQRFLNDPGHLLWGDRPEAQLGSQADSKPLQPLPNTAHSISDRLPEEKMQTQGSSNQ
UniProt Q9BUL9: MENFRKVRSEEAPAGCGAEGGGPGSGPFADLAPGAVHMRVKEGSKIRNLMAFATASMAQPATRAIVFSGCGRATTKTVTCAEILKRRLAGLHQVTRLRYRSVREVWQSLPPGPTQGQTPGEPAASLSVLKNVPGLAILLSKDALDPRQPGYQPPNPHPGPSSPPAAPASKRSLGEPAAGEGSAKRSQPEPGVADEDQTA

[2] = compound: CN1CCN(c2nc(C3=C(c4c[nH]c5ccccc45)C(=O)NC3=O)c3ccccc3n2)CC1 [sotrastaurin]
Summary of the method: as §1

[3] = compound: CN1CC[C@H](c2c(O)cc(O)c3c(=O)cc(-c4ccccc4Cl)oc23)[C@H](O)C1 [alvocidib]
Summary of the method: as §1

[4] = compound: CN1CCc2c(c3ccccc3n2Cc2ccc(C(=O)NO)cc2)C1 [Tubastatin A]
Summary of the method: as §1

[5] = compound: CNC(=O)C1=CC=CC=C1NC2=NC(=NC=C2Cl)NC3=C(C=C(C=C3)N4CCOCC4)OC
Summary of the method: as §1

[6] = compound: CNC(=O)c1ccc(Nc2ncc(C(F)(F)F)c(NCc3nccnc3N(C)S(C)(=O)=O)n2)cc1 [defactinib]
Summary of the method: as §1

[7] = compound: CNCc1ccc(-c2[nH]c3cc(F)cc4c3c2CCNC4=O)cc1 [rucaparib]
Summary of the method: as §1

[8] = compound: CNc1nc(-c2ccc3c(N)n[nH]c3c2)cc(N2C[C@@H](C(=O)NC3CCCCC3)CC[C@H]2C)n1
Summary of the method: as §1

[9] = compound: COC(=O)N[C@@H](C)CNc1nccc(-c2cn(C(C)C)nc2-c2cc(Cl)cc(NS(C)(=O)=O)c2F)n1 [encorafenib]
Summary of the method: as §1

[10] = compound: COC(=O)[C@H](CCSC)NC(=O)C1=C(C=C(C=C1)NC[C@H](CS)N)C2=CC=CC=C2
Summary of the method: as §1

Measured: log2 fold change

RPL34 (UniProt P49207)
inactive: [1] -0.172 | [2] 0.026 | [3] 0.46 | [4] 0.191 | [5] 0.099 | [6] 0.528 | [7] 0.435 | [8] 0.276 | [9] 0.205 | [10] -0.059

RPL21 (UniProt P46778)
inactive: [1] -0.165 | [2] -0.009 | [3] 0.533 | [4] 0.242 | [5] 0.029 | [6] 0.685 | [7] 0.487 | [8] 0.186 | [9] 0.222 | [10] 0.006

RPL18 (UniProt Q07020)
inactive: [1] -0.142 | [2] -0.037 | [3] 0.485 | [4] 0.249 | [5] 0.074 | [6] 0.686 | [7] 0.516 | [8] 0.219 | [9] 0.234 | [10] 0.085

RPS27L (UniProt Q71UM5)
inactive: [1] -0.087 | [2] 0.025 | [3] 0.068 | [4] 0.026 | [5] 0.062 | [6] 0.099 | [7] 0.225 | [8] 0.088 | [9] 0.067 | [10] -0.02

RPN2 (UniProt P04844)
inactive: [1] 0.011 | [2] 0.006 | [3] -0.003 | [4] 0.016 | [5] -0.01 | [6] 0.009 | [7] -0.027 | [8] -0.001 | [9] 0.052 | [10] 0

RPL28 (UniProt P46779)
inactive: [1] -0.162 | [2] -0.042 | [3] 0.481 | [4] 0.208 | [5] 0.094 | [6] 0.573 | [7] 0.471 | [8] 0.215 | [9] 0.241 | [10] 0.019

RPS6KB1 (UniProt P23443)
inactive: [1] 0.072 | [2] -0.018 | [3] -0.042 | [4] -0.003 | [5] 0.008 | [6] -0.038 | [7] -0.045 | [8] -0.007 | [9] 0.006 | [10] 0.01

RPL9 (UniProt P32969)
inactive: [1] -0.134 | [2] -0.062 | [3] 0.455 | [4] 0.247 | [5] 0.125 | [6] 0.577 | [7] 0.472 | [8] 0.126 | [9] 0.216 | [10] 0.036

RNGTT (UniProt O60942)
inactive: [1] -0.079 | [2] -0.076 | [3] -0.131 | [4] 0.012 | [5] -0.005 | [6] -0.055 | [7] 0.012 | [8] 0.025 | [9] 0.11 | [10] -0.048

RPS23 (UniProt P62266)
inactive: [1] -0.133 | [2] -0.042 | [3] 0.4 | [4] 0.135 | [5] 0.056 | [6] 0.539 | [7] 0.317 | [8] 0.156 | [9] 0.146 | [10] 0.053

RPL35A (UniProt P18077)
inactive: [1] -0.183 | [2] -0.041 | [3] 0.534 | [4] 0.225 | [5] 0.033 | [6] 0.627 | [7] 0.422 | [8] 0.235 | [9] 0.228 | [10] -0.015

RPAP3 (UniProt Q9H6T3)
inactive: [1] -0.078 | [2] -0.075 | [3] -0.002 | [4] -0.007 | [5] 0.064 | [6] -0.04 | [7] 0.027 | [8] -0.052 | [9] 0.065 | [10] -0.006

RPA2 isoform 3 (UniProt P15927)
inactive: [1] -0.107 | [2] 0.02 | [3] 0.001 | [4] 0.004 | [5] -0.053 | [6] -0.03 | [7] -0.014 | [8] -0.039 | [9] 0.01 | [10] 0.038

RPL13 (UniProt P26373)
inactive: [1] -0.213 | [2] -0.004 | [3] 0.484 | [4] 0.261 | [5] 0.03 | [6] 0.656 | [7] 0.465 | [8] 0.208 | [9] 0.259 | [10] 0.052

RPL17 isoform 3 (UniProt P18621)
inactive: [1] -0.054 | [2] -0.067 | [3] 0.309 | [4] 0.135 | [5] 0.058 | [6] 0.353 | [7] 0.579 | [8] 0.127 | [9] 0.086 | [10] 0.038

RPS17 (UniProt P08708)
inactive: [1] -0.044 | [2] 0.007 | [3] 0.16 | [4] 0.046 | [5] 0.058 | [6] 0.14 | [7] 0.16 | [8] 0.076 | [9] 0.031 | [10] 0.024

RPL37A (UniProt P61513)
inactive: [1] -0.236 | [2] -0.021 | [3] 0.405 | [4] 0.215 | [5] 0.018 | [6] 0.675 | [7] 0.532 | [8] 0.24 | [9] 0.175 | [10] 0.001

RPL18A (UniProt Q02543)
inactive: [1] -0.21 | [2] -0.032 | [3] 0.52 | [4] 0.264 | [5] 0.018 | [6] 0.678 | [7] 0.54 | [8] 0.226 | [9] 0.236 | [10] 0.026

RPL5 (UniProt P46777)
inactive: [1] -0.035 | [2] -0.014 | [3] 0.223 | [4] 0.085 | [5] 0.051 | [6] 0.238 | [7] 0.298 | [8] 0.102 | [9] 0.118 | [10] -0.004

RPL29 (UniProt P47914)
inactive: [1] -0.062 | [2] -0.077 | [3] 0.316 | [4] 0.148 | [5] -0.04 | [6] 0.431 | [7] 0.46 | [8] 0.17 | [9] 0.167 | [10] -0.054

RRM2B isoform 6 (UniProt Q7LG56)
inactive: [1] -0.086 | [2] 0.042 | [3] 0.056 | [4] 0.001 | [5] -0.034 | [6] -0.023 | [7] -0.009 | [8] -0.064 | [9] -0.022 | [10] 0.067

Two consecutive entries out of the list so far, for reference:
RPL5 (UniProt P46777)
inactive: [1] -0.035 | [2] -0.014 | [3] 0.223 | [4] 0.085 | [5] 0.051 | [6] 0.238 | [7] 0.298 | [8] 0.102 | [9] 0.118 | [10] -0.004

RPL29 (UniProt P47914)
inactive: [1] -0.062 | [2] -0.077 | [3] 0.316 | [4] 0.148 | [5] -0.04 | [6] 0.431 | [7] 0.46 | [8] 0.17 | [9] 0.167 | [10] -0.054

The list goes on:

RPL11 (UniProt P62913)
inactive: [1] -0.149 | [2] -0.036 | [3] 0.449 | [4] 0.201 | [5] 0.082 | [6] 0.483 | [7] 0.423 | [8] 0.167 | [9] 0.172 | [10] 0.012

RPUSD2 (UniProt Q8IZ73)
inactive: [1] -0.04 | [2] -0.002 | [3] -0.001 | [4] 0.028 | [5] 0.002 | [6] 0.017 | [7] 0.006 | [8] -0.034 | [9] -0.014 | [10] 0.015

RPL22 (UniProt P35268)
inactive: [1] -0.102 | [2] -0.004 | [3] 0.278 | [4] 0.106 | [5] 0.05 | [6] 0.25 | [7] 0.252 | [8] 0.096 | [9] 0.098 | [10] 0.031

RPL32 (UniProt P62910)
inactive: [1] -0.127 | [2] -0.099 | [3] 0.385 | [4] 0.197 | [5] 0.046 | [6] 0.53 | [7] 0.416 | [8] 0.203 | [9] 0.193 | [10] -0.035

RPP21 isoform 4 (UniProt Q9H633)
inactive: [1] 0.069 | [2] -0.015 | [3] -0.028 | [4] 0.115 | [5] -0.044 | [6] -0.205 | [7] -0.006 | [8] 0.003 | [9] 0.003 | [10] -0.037

RPP25 (UniProt Q9BUL9)
inactive: [1] -0.016 | [2] 0.042 | [3] 0.019 | [4] -0.006 | [5] 0.004 | [6] -0.041 | [7] 0.099 | [8] -0.051 | [9] 0.03 | [10] 0.021

RPL15 (UniProt P61313)
inactive: [1] -0.193 | [2] -0.006 | [3] 0.487 | [4] 0.252 | [5] 0.026 | [6] 0.731 | [7] 0.465 | [8] 0.277 | [9] 0.256 | [10] 0.048

RPL7A (UniProt P62424)
inactive: [1] -0.16 | [2] -0.035 | [3] 0.425 | [4] 0.213 | [5] 0.075 | [6] 0.622 | [7] 0.504 | [8] 0.224 | [9] 0.231 | [10] 0.043

RPS29 (UniProt P62273)
inactive: [1] -0.066 | [2] -0.014 | [3] 0.173 | [4] 0.09 | [5] 0.167 | [6] 0.399 | [7] 0.153 | [8] 0.007 | [9] -0.043 | [10] -0.001

From the supplement of paper PMC10849652
